Measured values from the supplement of paper PMC10331698.
± gives the standard deviation of the averaged measurements. Most entries show no effect beyond the scatter of the controls.

Columns and labels:
Experiment in all cases: level (log10 ratio to DMSO vehicle control); higher = higher biomarker level / cell amount than vehicle control
[1] = compound: C=C(C)C(=O)OCCC(F)(F)C(F)(F)C(F)(F)C(F)(F)C(F)(F)C(F)(F)F [6:2 Fluorotelomer methacrylate] (in DMSO); conditions: 2200 nM
Experimental: (§1)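 BioMAP Diversity Plus panel of 12 human primary cell co-culture systems (3C, 4H, LPS, SAg, BT, BF4T, BE3C, CASM3C, HDF3CGF, KF3CT, MyoF, Mphg). Compounds were added 1 h before stimulation and left for 24 h (MyoF 48 h; BT 72 h for soluble read-outs or 6 d for IgG). Biomarkers were read by ELISA, cytotoxicity by SRB, PBMC viability and proliferation by Alamar Blue. Each well value was divided by the mean of 8 DMSO control wells on the same plate and log10 transformed; duplicate blinded samples were tested at 4 concentrations.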

[2] = compound: CNS(=O)(=O)C(F)(F)C(F)(F)C(F)(F)C(F)(F)C(F)(F)C(F)(F)C(F)(F)C(F)(F)F [N-Methylperfluorooctanesulfonamide] (in DMSO); conditions: 2200 nM
Experimental: as §1

[3] = compound: FC(F)(F)C(F)(F)C(F)(F)C(F)(F)CCI [1H,1H,2H,2H-Perfluorohexyl iodide] (in DMSO); conditions: 2200 nM
Experimental: as §1

[4] = compound: FC(F)(F)C(F)(F)CNCC(F)(F)C(F)(F)F [Bis(1H,1H-perfluoropropyl)amine] (in DMSO); conditions: 2200 nM
Experimental: as §1

[5] = compound: FC(F)(F)COC(OCC(F)(F)F)OCC(F)(F)F [tris(Trifluoroethoxy)methane] (in DMSO); conditions: 2200 nM
Experimental: as §1

Hexafluoroglutaric acid = compound: O=C(O)C(F)(F)C(F)(F)C(F)(F)C(=O)O [Hexafluoroglutaric acid] (in DMSO)
Experimental: as §1

Perfluorohexanoic acid = compound: O=C(O)C(F)(F)C(F)(F)C(F)(F)C(F)(F)C(F)(F)F [Perfluorohexanoic acid] (in DMSO)
Experimental: as §1

[6] = compound: O=C(O)C(F)(F)C(F)(F)C(F)(F)OC(F)(C(F)(F)F)C(F)(F)F [Perfluoro-4-isopropoxybutanoic acid] (in DMSO); conditions: 2200 nM
Experimental: as §1

[7] = compound: O=C(O)C(F)(OC(F)(F)C(F)(F)C(F)(F)F)C(F)(F)F [Ammonium perfluoro-2-methyl-3-oxahexanoate] (in Water)
Experimental: as §1

[8] = compound: O=C(O)C(F)(OC(F)(F)C(F)(OC(F)(F)C(F)(OC(F)(F)C(F)(F)C(F)(F)F)C(F)(F)F)C(F)(F)F)C(F)(F)F [Perfluoro-(2,5,8-trimethyl-3,6,9-trioxadodecanoic)acid] (in DMSO); conditions: 370 nM
Experimental: as §1

[9] = compound: O=C(O)CCC(F)(F)C(F)(F)C(F)(F)F [3:3 Fluorotelomer carboxylic acid] (in DMSO); conditions: 2200 nM
Experimental: as §1

[10] = compound: O=S(=O)(O)C(F)(F)C(F)(F)C(F)(F)C(F)(F)F [Perfluorobutanesulfonic acid] (in DMSO)
Experimental: as §1

[11] = compound: OCC(F)(F)C(F)(F)C(F)(F)C(F)(F)C(F)(F)C(F)(F)CO [1H,1H,8H,8H-Perfluorooctane-1,8-diol] (in DMSO); conditions: 2200 nM
Experimental: as §1

[12] = compound: OCC(F)(F)C(F)(F)C(F)(F)C(F)(F)C(F)(F)C(F)(F)F [6:1 Fluorotelomer alcohol] (in DMSO); conditions: 2200 nM
Experimental: as §1

[13] = compound: OCC(F)(F)C(F)(F)C(F)(F)C(F)F [1H,1H,5H-Perfluoropentanol] (in DMSO); conditions: 2200 nM
Experimental: as §1

[14] = compound: OCC(F)(F)OC(F)(F)C(F)(F)OC(F)(F)CO [1H,1H,8H,8H-Perfluoro-3,6-dioxaoctane-1,8-diol] (in DMSO); conditions: 2200 nM
Experimental: as §1

[15] = compound: OCCCC(F)(F)C(F)(F)C(F)(F)C(F)(F)C(F)(F)C(F)(F)C(F)(F)C(F)(F)F [3-(Perfluorooctyl)propanol] (in DMSO); conditions: 2200 nM
Experimental: as §1

Test System: MyoF:Collagen I
- level (log10) [1]: 0.0105 ± 0.028
- level (log10) [2]: 0.0095 ± 0.022
- level (log10) [3]: 0.01 ± 0.016
- level (log10) [4]: -0.008 ± 0.0099
- level (log10) [5]: -0.0135 ± 0.018
- level (log10) (Hexafluoroglutaric acid; 2200 nM): 0.0055 ± 0.025
- level (log10) (Hexafluoroglutaric acid; 6700 nM): -0.003 ± 0.013
- level (log10) (Hexafluoroglutaric acid; 20000 nM): -0.0005 ± 0.016
- level (log10) (Hexafluoroglutaric acid; 60000 nM): 0.011 ± 0.0014
- level (log10) (Perfluorohexanoic acid; 2200 nM): -0.005 ± 0.0042
- level (log10) (Perfluorohexanoic acid; 6700 nM): -0.01 ± 0.0057
- level (log10) (Perfluorohexanoic acid; 20000 nM): -0.0095 ± 0.0092
- level (log10) (Perfluorohexanoic acid; 60000 nM): -0.0025 ± 0.011
- level (log10) [6]: 0.0115 ± 0.026
- level (log10) ([7]; 2200 nM): 0.008 ± 0.0071
- level (log10) ([7]; 6700 nM): -0.0135 ± 0.061
- level (log10) ([7]; 20000 nM): -0.024 ± 0.024
- level (log10) ([7]; 60000 nM): -0.027 ± 0.031
- level (log10) [8]: -0.023 ± 0.0042
- level (log10) [9]: 0.0065 ± 0.016
- level (log10) ([10]; 2200 nM): 0.0165 ± 0.028
- level (log10) ([10]; 6700 nM): -0.017 ± 0.023
- level (log10) ([10]; 20000 nM): -0.004 ± 0.0014
- level (log10) ([10]; 60000 nM): -0.0235 ± 0.0064
- level (log10) [11]: 0.0015 ± 0.046
- level (log10) [12]: -0.008 ± 0.0057
- level (log10) [13]: 0.013 ± 0.035
- level (log10) [14]: -0.01 ± 0.042
- level (log10) [15]: -0.0065 ± 0.035

Test System: KF3CT:SRB
- level (log10) [1]: 0.0065 ± 0.021
- level (log10) [2]: 0.0075 ± 0.0021
- level (log10) [3]: -0.0045 ± 0.013
- level (log10) [4]: 0.0065 ± 0.0092
- level (log10) [5]: 0.011 ± 0.013
- level (log10) (Hexafluoroglutaric acid; 2200 nM): 0.002 ± 0.011
- level (log10) (Hexafluoroglutaric acid; 6700 nM): -0.0055 ± 0.0021
- level (log10) (Hexafluoroglutaric acid; 20000 nM): -0.011 ± 0.0057
- level (log10) (Hexafluoroglutaric acid; 60000 nM): 0.003 ± 0.018
- level (log10) (Perfluorohexanoic acid; 2200 nM): 0.0065 ± 0.021
- level (log10) (Perfluorohexanoic acid; 6700 nM): 0.0045 ± 0.0035
- level (log10) (Perfluorohexanoic acid; 20000 nM): -0.012 ± 0.0014
- level (log10) (Perfluorohexanoic acid; 60000 nM): 0.0045 ± 0.00071
- level (log10) [6]: -0.002 ± 0.021
- level (log10) ([7]; 2200 nM): 0.0015 ± 0.005
- level (log10) ([7]; 6700 nM): -0.004
- level (log10) ([7]; 20000 nM): -0.005 ± 0.0014
- level (log10) ([7]; 60000 nM): -0.0015 ± 0.005
- level (log10) [8]: 0.006 ± 0.014
- level (log10) [9]: 0.013 ± 0.023
- level (log10) ([10]; 2200 nM): 0.007 ± 0.0085
- level (log10) ([10]; 6700 nM): 0.002 ± 0.0042
- level (log10) ([10]; 20000 nM): 0 ± 0.0014
- level (log10) ([10]; 60000 nM): 0 ± 0.0014
- level (log10) [11]: 0 ± 0.0099
- level (log10) [12]: 0.0125 ± 0.022
- level (log10) [13]: 0.0095 ± 0.0078
- level (log10) [14]: 0.018 ± 0.03
- level (log10) [15]: -0.011 ± 0.0028

Test System: HDF3CGF:TIMP-2
- level (log10) [1]: -0.022 ± 0.054
- level (log10) [2]: -0.0725 ± 0.011
- level (log10) [3]: -0.0125 ± 0.00071
- level (log10) [4]: -0.008 ± 0.027
- level (log10) [5]: -0.0225 ± 0.018
- level (log10) (Hexafluoroglutaric acid; 2200 nM): -0.02 ± 0.011
- level (log10) (Hexafluoroglutaric acid; 6700 nM): -0.041 ± 0.0014
- level (log10) (Hexafluoroglutaric acid; 20000 nM): 0.01 ± 0.0028
- level (log10) (Hexafluoroglutaric acid; 60000 nM): -0.0345 ± 0.0021
- level (log10) (Perfluorohexanoic acid; 2200 nM): 0.004 ± 0.024
- level (log10) (Perfluorohexanoic acid; 6700 nM): 0.033 ± 0.0014
- level (log10) (Perfluorohexanoic acid; 20000 nM): 0.021 ± 0.017
- level (log10) (Perfluorohexanoic acid; 60000 nM): 0.025 ± 0.037
- level (log10) [6]: 0.007 ± 0.016
- level (log10) ([7]; 2200 nM): 0.0005 ± 0.12
- level (log10) ([7]; 6700 nM): 0.0405 ± 0.07
- level (log10) ([7]; 20000 nM): 0.0435 ± 0.013
- level (log10) ([7]; 60000 nM): -0.0185 ± 0.079
- level (log10) [8]: 0.012 ± 0.035
- level (log10) [9]: -0.0205 ± 0.039
- level (log10) ([10]; 2200 nM): -0.0195 ± 0.049
- level (log10) ([10]; 6700 nM): 0.0135 ± 0.037
- level (log10) ([10]; 20000 nM): 0.017 ± 0.023
- level (log10) ([10]; 60000 nM): 0.031 ± 0.014
- level (log10) [11]: -0.002 ± 0.021
- level (log10) [12]: -0.0175 ± 0.013
- level (log10) [13]: -0.066 ± 0.061
- level (log10) [14]: -0.007 ± 0.02
- level (log10) [15]: 0.024

Test System: BE3C:EGFR
- level (log10) [1]: 0.036 ± 0.062
- level (log10) [2]: 0.0195 ± 0.018
- level (log10) [3]: 0.043 ± 0.023
- level (log10) [4]: -0.0035 ± 0.025
- level (log10) [5]: 0.0245 ± 0.032
- level (log10) (Hexafluoroglutaric acid; 2200 nM): -0.0035 ± 0.015
- level (log10) (Hexafluoroglutaric acid; 6700 nM): -0.0055 ± 0.0035
- level (log10) (Hexafluoroglutaric acid; 20000 nM): -0.0175 ± 0.005
- level (log10) (Hexafluoroglutaric acid; 60000 nM): 0.0025 ± 0.012
- level (log10) (Perfluorohexanoic acid; 2200 nM): -0.004
- level (log10) (Perfluorohexanoic acid; 6700 nM): 0.003 ± 0.0014
- level (log10) (Perfluorohexanoic acid; 20000 nM): -0.005 ± 0.0028
- level (log10) (Perfluorohexanoic acid; 60000 nM): 0.0025 ± 0.015
- level (log10) [6]: 0.018 ± 0.064
- level (log10) ([7]; 2200 nM): -0.001 ± 0.057
- level (log10) ([7]; 6700 nM): -0.016 ± 0.023
- level (log10) ([7]; 20000 nM): -0.009 ± 0.0085
- level (log10) ([7]; 60000 nM): 0.005 ± 0.0057
- level (log10) [8]: 0.015 ± 0.016
- level (log10) [9]: -0.0005 ± 0.011
- level (log10) ([10]; 2200 nM): -0.007 ± 0.035
- level (log10) ([10]; 6700 nM): -0.0045 ± 0.021
- level (log10) ([10]; 20000 nM): 0 ± 0.018
- level (log10) ([10]; 60000 nM): 0.0005 ± 0.0092
- level (log10) [11]: -0.0185 ± 0.0092
- level (log10) [12]: 0.0135 ± 0.019
- level (log10) [13]: -0.001 ± 0.016
- level (log10) [14]: -0.014 ± 0.011
- level (log10) [15]: -0.015 ± 0.024
